Experimental data: PubChem BioAssay AID2685 (National Center for Advancing Translational Sciences (NCATS), 2010)
The list shows a part of the results. The main result of the screen is listed elsewhere. These columns were measured beside it and carry no call. Most of these compounds were active or inconclusive in the main read-out, so they are no random draw. Potencies come from curve fits of mixed quality, noted in brackets.

Assay: qHTS Assay for Lipid Storage Modulators in Drosophila S3 Cells;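 as to cell number change: cells counted by Cell Tracker Red CMTPX staining in the red channel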
Conditions: BODIPY lipid droplet fluorescence, 18-24 h; for cell number change: measured here: cell count max response, cells fed with added oleic acid
How it was run: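 Drosophila S3 cells got compounds at several concentrations plus oleic acid (400 uM solution). Laser-scanning cytometry with 488 nm excitation read lipid droplets at 500-530 nm and cells at 575-640 nm. Percent activity was relative to 20 uM Triacsin C.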

[1] = measured here: lipid fluorescence (Fed channel) AC50, cells fed with added oleic acid
[2] = measured here: cell number channel AC50, cells fed with added oleic acid

COc1ccc(Nc2nc(NCCO)nc(OC)n2)cc1
AC50 [1]: 651 nM [rising, single point]

Cc1ccc(S(=O)(=O)NC(C)C(=O)Nc2cccc([N+](=O)[O-])c2)cc1 (configuration not stated)
cell number change: 34%

COc1ccc2c(c1)c1nnc(SCC(=O)NC3CC3)nc1n2C
AC50 [1]: 18400 nM [falling, single point]

O=C(CCCc1ccccc1)NCCN1CCOCC1
cell number change: 10.4% | AC50 [1]: 184 nM [falling, full curve]

O=C1c2ccccc2C(=O)N1CC(=O)N1c2ccccc2Sc2ccc(C(F)(F)F)cc21
cell number change: 4.02% | AC50 [1]: 4.11 nM [falling, full curve, poor fit]

OCCN1CCN(c2ncnc3sc(-c4ccccc4)cc23)CC1
cell number change: -10%

CC(=O)n1nc(-c2cccnc2)nc1N
cell number change: 12.2% | AC50 [1]: 920 nM [rising, full curve]

CCc1ccc2c(c1)c1nc(C)sc1n2CC(=O)OC
cell number change: 42.6% | AC50 [2]: 10300 nM [rising, single point] | AC50 [1]: 20600 nM [rising, partial curve]

CC1CCCN(C(=O)c2nn(C)c3c2CS(=O)(=O)c2ccccc2-3)C1 (configuration not stated)
AC50 [1]: 6510 nM [rising, single point]

O=C(NCc1cccs1)C1CC(c2ccc(Cl)cc2)=NO1 (configuration not stated)
cell number change: 29.4% | AC50 [1]: 16400 nM [rising, partial curve, poor fit]

CC(C)Oc1cccc(C(=O)C2CCCN(C(=O)c3ccsc3)C2)c1 (configuration not stated)
AC50 [1]: 29100 nM [falling, single point]

O=C(NCC1OCCc2ccccc21)c1ccc(NC(=O)c2ccc(Cl)cc2Cl)cc1 (configuration not stated)
cell number change: -17.9% | AC50 [1]: 14600 nM [falling, single point]

Nc1c2c(nn1-c1ccccc1)CCC2
cell number change: -9.21% | AC50 [1]: 100 nM [falling, full curve, poor fit]

O=C1Oc2ccccc2C(=O)/C1=C\N1CCN(c2ccccc2)CC1
cell number change: -12.3%

Cc1ccc(-n2nnnc2SCC(=O)Nc2ccccc2-c2ccccc2)cc1C
cell number change: -5.08% | AC50 [1]: 29100 nM [rising, single point]

O=C(CCc1ccccc1)N1CCN(CCO)CC1
cell number change: -3.54%

Cc1scc(C(=O)N2CCN(c3ccc(Cl)cc3)CC2)c1C
cell number change: -19.4% | AC50 [2]: 4.61 nM [falling, full curve, poor fit] | AC50 [1]: 4.61 nM [falling, full curve, poor fit]

CC(C)c1ccc2[nH]c(O)c(N=NC(=O)c3cccc(S(=O)(=O)Nc4ccc(Cl)cc4)c3)c2c1
cell number change: -59.9%

Cc1ccc(OCC(=O)c2ccc(Cl)s2)c([N+](=O)[O-])n1
cell number change: 14% | AC50 [2]: 82 nM [falling, full curve, poor fit] | AC50 [1]: 116 nM [falling, full curve, poor fit]
